Experimental data reported in PMC9456107, “DNA Motifs and an Accessory CRISPR Factor Determine Cas1 Binding and Integration Activity in Sulfolobus islandicus”.

Target: T1, plasmid-borne His-tagged Cas1 (S. islandicus REY15A) (UniProt F0NGP4)
T1 sequence: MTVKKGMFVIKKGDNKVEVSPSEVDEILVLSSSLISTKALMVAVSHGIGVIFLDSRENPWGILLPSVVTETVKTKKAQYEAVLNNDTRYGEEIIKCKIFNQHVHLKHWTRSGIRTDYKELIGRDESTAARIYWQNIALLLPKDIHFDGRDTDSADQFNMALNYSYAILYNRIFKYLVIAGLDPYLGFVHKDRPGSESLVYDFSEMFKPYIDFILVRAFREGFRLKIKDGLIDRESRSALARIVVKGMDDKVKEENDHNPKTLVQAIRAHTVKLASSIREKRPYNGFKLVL
Assay: affinity purification with mass spectrometry; in vivo pull-down: His-tagged Cas1 expressed from pSeSD in S. islandicus; soluble lysate on Ni-NTA agarose beads; 20 mM HEPES-NaOH pH 7.6, 500 mM NaCl; wash with 100 mM imidazole, elution with 500 mM imidazole; eluate to mass spectrometry

Csa3a
binding: binds

These are yes or no findings as the source states them, for the method shown. In cells and extracts the contact can be indirect. These calls come from enrichment with a bait or labelling near it, and not all partners need be listed. Sequences can lack the tags named with a protein.
